Measurements from publication PMC10551642, “Functional plasticity in chromosome–microtubule coupling on the evolutionary time scale” (Life Science Alliance, 2023).
Numbering of substitutions follows the chain as printed. Names and notes keep the numbering of the source. These are yes or no findings as the source states them, for the method shown. Some entries that bind do so weakly or less than the wild type. For some of these results: Tags and fused reporters may be left off the sequences shown.

T1: S. cerevisiae Dad1 with C-terminal His6 tag (S. cerevisiae) (UniProt Q12248)
T1 sequence: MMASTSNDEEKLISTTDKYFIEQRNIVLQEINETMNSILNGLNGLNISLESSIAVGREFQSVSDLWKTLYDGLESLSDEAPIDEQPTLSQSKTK

B1: S. cerevisiae Dad2 (Dad2-FL) (protein, UniProt P36162 1-133)
chain: MDSIDEQIAIKRKELQSLQKITSLTDGLKIQLTELNEQIKEMGMNADSVAQLMNNWDSIINNISQASLGLLQYAEGDYEIGPWKDSKKKESEQSNETGLEAQENDKNDEDNDEDEDLVPLPETMVRIRVDGNE
B2: S. cerevisiae Dad2-R126A (protein, UniProt P36162 1-133)
chain: B1 chain with R126A
B3: S. cerevisiae Dam1 (protein, UniProt P53267 1-343)
chain: MSEDKAKLGTTRSATEYRLSIGSAPTSRRSSMGESSSLMKFADQEGLTSSVGEYNENTIQQLLLPKIRELSDSIITLDSNFTRLNFIHESLADLNESLGSLLYGIMSNSWCVEFSQAPHDIQDDLIAIKQLKSLEDEKNNLVMELSNMERGIKRKKDEQGENDLAKASQNKQFNQPLFPSSQVRKYRSYDNRDKRKPSKIGNNLQVENEEDYEDDTSSEASFVLNPTNIGMSKSSQGHVTKTTRLNNNTNSKLRRKSILHTIRNSIASGADLPIENDNVVNLGDLHPNNRISLGSGAARVVNGPVTKNRNSMFSGRAERKPTESRHSVAKKTEKKINTRPPFR
B4: S. cerevisiae Duo1 (protein, UniProt P53168 1-247)
chain: MSEQSQLDDSTIDKLIPQIFNEMRSNLNNTTNKFPKSTGGGASDNISANSNSIRSFNSITTQSLLKESESLDKITAMIKNVTAALKNNLPVYVNQVHEVCKSTNSILDSWINIHSQAGYIHKLMSDQTYLKLINDRLHNENVNTNDEDGSTLHNVIALKKKEILDLRQKLENRKGEKDAAPAKPPNQGLNPRYGVQSGRRPVPSAGISNNGRVRKTHVPASKRPSGIPRVTNRWTKPTASSSRKMFR
B5: S. cerevisiae Spc19 (protein, UniProt Q03954 1-165)
chain: MTDALEQSVLALEGTVSVLKDSVESLKCANEPSTNLASTMLQTKRVFRLVPEYDVERSKLDLIEEVEPLVRTLGDKLRKSMGRMQRELDTLQQTYELNDLRLKKNISMDDDDALNSPDMGQEYEGRDADDVVMMASSTNEELEELKKLKEKKKQLENKLEILKQK
B6: S. cerevisiae Dad3 (protein, UniProt P69850 1-94)
chain: MEHNLSPLQQEVLDKYKQLSLDLKALDETIKELNYSQHRQQHSQQETVSPDEILQEMRDIEVKIGLVGTLLKGSVYSLILQRKQEQESLGSNSK
B7: S. cerevisiae Dad4 (protein, UniProt P69851 1-72)
chain: MENPHEQVQANILSRIIGNVKRLNESVAILNQELVTINNRNKNLEIMGAICDNYHSSVQFNLEATNNKKPPL
B8: S. cerevisiae Ask1 (protein, UniProt P35734 1-292)
chain: MDSASKEETLEKLDQEITVNLQKIDSNLSFCFHKITQDIIPHVATYSEICERIMDSTEWLGTMFQETGLVNLQANAAAPVGNAPVKSLVSNNVGIFPTSAEEASRQSQTDNGPNEADSAVHVNRDVHSMFNNDSIDDFHTANITSTGQILKLPDSSDEDTGSEAVPSREQTDLTGEGHGGADDEQDESTIQRQSRKRKISLLLQQQYGSSSSMVPSPIVPNKMRKQLAHEEHINNDGDNDDENSNNIESSPLKQGHHHPKGQADDNNEGPDEEESTKEVPKPGTIIHFSTNR
B9: S. cerevisiae Hsk3 (protein, UniProt P69852 1-69)
chain: MNANKQRQYNQLAHELRELQTNLQETTKQLDIMSKQCNENLVGQLGKVHGSWLIGSYIYYMEQMLGKTQ
B10: S. cerevisiae Spc34 (protein, UniProt P36131 1-295)
chain: MGESLDRCIDDINRAVDSMSTLYFKPPGIFHNAILQGASNKASIRKDITRLIKDCNHDEAYLLFKVNPEKQSVSRRDGKEGVFDYVIKRDTDMKRNRRLGRPGEKPIIHVPKEVYLNKDRLDLNNKRRRTATTSGGGLNGFIFDTDLIGSSVISNSSSGTFKALSAVFKDDPQIQRLLYALENGSVLMEEESNNQRRKTIFVEDFPTDLILKVMAEVTDLWPLTEFKQDYDQLYHNYEQLSSKLRFIKKEVLLQDDRLKTMSQYHPSSSHDVAKIIRKEKDEIRRLEMEIANLQE

Tests used:
[1] = target: S. cerevisiae Dam1 complex containing Dad2-R126A (DASH^R126A) (S. cerevisiae) (UniProt Q12248); assay: negative stain electron microscopy; Dam1 complex-MT reaction mix adsorbed on glow-discharged grids, washed with 25 mM HEPES pH 7.4, 500 mM NaCl, 1 mM EDTA, stained with 0.7% uranyl formate; rings of the complex around MTs; both purified
[2] = target: T1, S. cerevisiae Dad1 with C-terminal His6 tag (S. cerevisiae); assay: co-purification (Ni-NTA, ion exchange, gel filtration) with SDS-PAGE of the fractions; 10 subunits with WT Dad2 co-expressed in E. coli; captured by Dad1-His6 on Ni-NTA agarose; HiTRAP Q HP; Superose 6 10/300 GL in 25 mM HEPES pH 7.4, 500 mM NaCl, 1 mM EDTA; 4-12% gradient gel
[3] = target: T1, S. cerevisiae Dad1 with C-terminal His6 tag (S. cerevisiae); assay: co-purification (Ni-NTA, ion exchange, gel filtration) with SDS-PAGE of the fractions; as a1, but Dad2-R126A co-expressed instead of WT Dad2; fractions a and b of the gel filtration analysed
[4] = target: T1, S. cerevisiae Dad1 with C-terminal His6 tag (S. cerevisiae); assay: co-purification (Ni-NTA, ion exchange, gel filtration) with SDS-PAGE of the fractions; as a1, but Dad2-ΔDSS co-expressed instead of WT Dad2; fractions c and d of the gel filtration analysed

Molecule	binding [1]	binding [2]	binding [3]	binding [4]
S. cerevisiae Dam1 complex containing Dad2-R126A (DASH^R126A) (from UniProt Q12248 1-94; P36162 1-133; P69850 1-94; P69851 1-72; P53267 1-343; P53168 1-247; P35734 1-292; P69852 1-69; P36131 1-295)	no binding			
B1		binds		
B2			binds	
B3		binds	binds	binds
B4		binds	binds	binds
B5		binds		binds
B6		binds		
B7		binds		
B8		binds		
B9		binds		
B10		binds		
